These are yes or no findings as the source states them, for the method shown. In cells and extracts the contact can be indirect. Some results given as binding are weak or reduced against the parent protein; the word gives no strength. For some assays here: Sequences can lack the tags named with a protein. Blank lines part the entries; values can stand above or below the molecule they belong to.
Assays:
[1] = target: T1, Ets-like protein-1 (Elk-1), endogenous (human (endogenous in SK-Hep-1)) (UniProt P19419); assay: co-IP; endogenous proteins of SK-Hep-1 cells; RIPA lysate, IP with anti-MZF-1, anti-Elk-1 or control rabbit IgG, immunoblot with the antibody of the counterpart
T1 sequence: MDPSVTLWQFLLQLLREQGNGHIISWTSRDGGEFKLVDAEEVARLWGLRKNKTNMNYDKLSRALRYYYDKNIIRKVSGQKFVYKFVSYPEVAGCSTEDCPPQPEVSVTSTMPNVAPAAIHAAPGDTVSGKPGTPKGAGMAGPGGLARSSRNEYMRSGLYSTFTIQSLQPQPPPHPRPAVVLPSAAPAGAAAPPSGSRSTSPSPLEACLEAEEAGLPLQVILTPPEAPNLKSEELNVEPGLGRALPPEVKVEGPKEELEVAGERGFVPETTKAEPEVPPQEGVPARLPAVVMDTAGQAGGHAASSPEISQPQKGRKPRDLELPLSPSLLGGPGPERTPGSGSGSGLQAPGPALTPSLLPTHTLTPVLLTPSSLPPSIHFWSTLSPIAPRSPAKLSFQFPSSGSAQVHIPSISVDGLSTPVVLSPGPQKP

The chains behind the UniProt entries cited, without tags or fusion partners. Where a name states a change or a piece, a line headed by the entry shows the natural chain unless it says otherwise. A line that says so, or that is headed by a name, gives the form on record, which may keep a tag or linker.
myeloid zinc finger-1 (MZF-1), endogenous (human (endogenous in SK-Hep-1)) (P28698-2, form named): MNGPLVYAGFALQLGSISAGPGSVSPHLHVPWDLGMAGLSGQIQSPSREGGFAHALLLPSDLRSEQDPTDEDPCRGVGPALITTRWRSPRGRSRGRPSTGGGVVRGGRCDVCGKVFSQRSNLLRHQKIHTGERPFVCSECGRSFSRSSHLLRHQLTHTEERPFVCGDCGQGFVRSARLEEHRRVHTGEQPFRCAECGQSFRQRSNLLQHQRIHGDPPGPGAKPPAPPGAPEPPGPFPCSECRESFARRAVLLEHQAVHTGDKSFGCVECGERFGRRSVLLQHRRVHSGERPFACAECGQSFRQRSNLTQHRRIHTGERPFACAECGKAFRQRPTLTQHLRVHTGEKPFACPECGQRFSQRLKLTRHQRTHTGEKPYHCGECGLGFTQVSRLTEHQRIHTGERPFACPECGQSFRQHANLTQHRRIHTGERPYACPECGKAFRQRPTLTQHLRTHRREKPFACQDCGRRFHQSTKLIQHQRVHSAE
FLAG-MZF-1ΔDBD (MZF-1 1–72 aa, DNA-binding deficient) (P28698-2, form named): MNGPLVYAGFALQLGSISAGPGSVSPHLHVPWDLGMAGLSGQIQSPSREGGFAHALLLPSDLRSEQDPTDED

[2] = target: T2, c-Myc-Elk-1ΔDBD (Elk-1 87–428 aa, DNA-binding deficient) (human) (UniProt P19419); assay: co-IP; SK-Hep-1 cells transfected with FLAG-MZF-1ΔDBD (5 μg) or c-Myc-Elk-1ΔDBD (5 μg); IP with anti-FLAG or anti-Myc, immunoblot with anti-Elk-1 or anti-MZF-1
T2 sequence: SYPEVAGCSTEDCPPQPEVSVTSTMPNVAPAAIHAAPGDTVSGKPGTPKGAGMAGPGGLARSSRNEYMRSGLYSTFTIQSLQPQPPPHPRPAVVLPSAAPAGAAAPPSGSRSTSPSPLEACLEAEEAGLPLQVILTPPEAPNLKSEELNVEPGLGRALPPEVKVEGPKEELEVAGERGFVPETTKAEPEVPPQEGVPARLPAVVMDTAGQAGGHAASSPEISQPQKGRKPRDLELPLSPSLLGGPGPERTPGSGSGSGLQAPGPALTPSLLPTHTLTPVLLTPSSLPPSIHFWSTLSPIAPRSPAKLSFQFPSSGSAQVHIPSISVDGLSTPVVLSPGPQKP

[3] = target: myeloid zinc finger-1 (MZF-1), endogenous (human (endogenous in SK-Hep-1)) (UniProt P28698); assay: co-IP; unpublished ('preparing for publication'); constructs and conditions not told
[4] = target: myeloid zinc finger-1 (MZF-1), endogenous (human (endogenous in SK-Hep-1)) (UniProt P28698); assay: co-IP; endogenous proteins of SK-Hep-1 cells; RIPA lysate, IP with anti-MZF-1, anti-Elk-1 or control rabbit IgG, immunoblot with the antibody of the counterpart
[5] = target: FLAG-MZF-1ΔDBD (MZF-1 1–72 aa, DNA-binding deficient) (human) (UniProt P28698); assay: co-IP; SK-Hep-1 cells transfected with FLAG-MZF-1ΔDBD (5 μg) or c-Myc-Elk-1ΔDBD (5 μg); IP with anti-FLAG or anti-Myc, immunoblot with anti-Elk-1 or anti-MZF-1

binding [1]: binds | binding [2]: binds
Molecule: myeloid zinc finger-1 (MZF-1), endogenous (from UniProt P28698-2 1-485)

binding [3]: binds | binding [4]: binds | binding [5]: binds
B1: Ets-like protein-1 (Elk-1), endogenous (protein, UniProt P19419 1-428)
chain: T1 sequence
